In US11135246B2, “Peptides and combination of peptides for use in immunotherapy against leukemias and other cancers” (Immatics Biotechnologies GmbH, priority 2017, dated 2021):

Test system: HLA molecules of primary tumor samples
Experiment: Identification of tumor associated peptides presented on the cell surface (HLA immune precipitation, LC-MS)
Design: species or system human
Conditions: for Peptide Presentation on cancer entities: entities on which the peptide was presented, CLL = chronic lymphocytic leukemia, AML = acute myeloid leukemia, CML = Chronic myeloid leukemia; for Peptide Presentation on tumor types: tumor entities on which the peptide was found presented (Table 8b)

Substance | Peptide Presentation on cancer entities | Peptide Presentation on tumor types
268 (NEDKGTKAW; listed as Homo sapiens) [compound 268] | CLL | 
242 (SPFSFHHVL; listed as Homo sapiens) [compound 242] | CLL | BRCA, CCC, CRC, GBC, GBM, GC, HCC, HNSCC, MEL, NHL, NSCLCadeno, NSCLCother, NSCLCsquam, OC, OSCAR, PACA, PRCA, RCC, SCLC, UBC, UEC
44 (KVYDPVSEY; listed as Homo sapiens) [compound 44] | CLL | BRCA, CCC, GBC, GBM, HCC, MEL, NHL, NSCLCadeno, NSCLCother, NSCLCsquam, OC, OSCAR, PACA, RCC, SCLC, UBC, UEC
201 (ILAAVETRL; listed as Homo sapiens) [compound 201] | CLL | BRCA, CCC, CRC, GBC, GBM, GC, GEJC, HCC, HNSCC, MEL, NHL, NSCLCadeno, NSCLCother, NSCLCsquam, OC, OSCAR, PACA, PRCA, RCC, SCLC, UBC, UEC
37 (KAKKPAGAAK; listed as Homo sapiens) [compound 37] | CLL | 
110 (FGLARIYSF; listed as Homo sapiens) [compound 110] | AML, CML | BRCA, CCC, GBC, GC, HCC, HNSCC, MEL, NHL, NSCLCadeno, NSCLCother, NSCLCsquam, OC, OSCAR, PACA, PRCA, RCC, SCLC, UBC, UEC
99 (SPRAINNLVL; listed as Homo sapiens) [compound 99] | CLL | NHL
36 (KAKAAAKPK; listed as Homo sapiens) [compound 36] | CLL | 
251 (QPRLFTMDL; listed as Homo sapiens) [compound 251] | CLL | BRCA, CRC, GBC, GC, HCC, HNSCC, MEL, NHL, NSCLCadeno, NSCLCother, NSCLCsquam, OC, OSCAR, PACA, RCC, SCLC, UEC
141 (REYEYDLKWEF; listed as Homo sapiens) [compound 141] | AML | 
159 (GELLGRQSF; listed as Homo sapiens) [compound 159] | CLL | BRCA, CCC, CRC, MEL, NHL, NSCLCadeno, OC, PACA, RCC, UEC
178 (REYEHYWTEL; listed as Homo sapiens) [compound 178] | CLL | MEL, NHL, NSCLCadeno, NSCLCother, OSCAR
171 (SEDLAVHLY; listed as Homo sapiens) [compound 171] | CLL | BRCA, CRC, GC, HCC, HNSCC, NHL, OSCAR, PACA, PRCA, UBC
220 (SISNLVFTY; listed as Homo sapiens) [compound 220] | AML | BRCA, CRC, GBC, GC, HCC, HNSCC, MEL, NSCLCadeno, NSCLCsquam, OC, OSCAR, PACA, PRCA, RCC, SCLC, UBC, UEC
163 (EEWMGLLEY; listed as Homo sapiens) [compound 163] | AML | 
53 (KYIEYYLVL; listed as Homo sapiens) [compound 53] | CLL | GC, NSCLCadeno, NSCLCsquam, UEC
187 (SDAQRPSSF; listed as Homo sapiens) [compound 187] | CLL | NSCLCother, RCC
252 (RPHIPISKL; listed as Homo sapiens) [compound 252] | CLL | BRCA, CRC, GBC, GBM, HCC, HNSCC, MEL, NHL, NSCLCadeno, NSCLCother, NSCLCsquam, OC, OSCAR, PACA, RCC, SCLC, UBC, UEC
269 (KELEDLNKW; listed as Homo sapiens) [compound 269] | CLL | BRCA, CRC, GBC, GBM, HCC, HNSCC, MEL, NHL, NSCLCadeno, NSCLCsquam, OC, OSCAR, PACA, PRCA, RCC, UEC
7 (FMDSESFYY; listed as Homo sapiens) [compound 7] | CLL | BRCA, GBC, GC, HNSCC, MEL, NHL, NSCLCadeno, NSCLCsquam
15 (SVADIRNAY; listed as Homo sapiens) [compound 15] | CLL | BRCA, CCC, CRC, GBC, GBM, GC, HCC, HNSCC, MEL, NHL, NSCLCadeno, NSCLCother, NSCLCsquam, OC, OSCAR, PACA, PRCA, RCC, SCLC, UBC, UEC
151 (EVDASIFKAW; listed as Homo sapiens) [compound 151] | CLL | BRCA, CCC, GBC, GBM, HCC, HNSCC, NHL, NSCLCsquam, OC, OSCAR, PACA, PRCA, SCLC, UBC, UEC
186 (NEQKIVRF; listed as Homo sapiens) [compound 186] | CLL | 
197 (SLADVHIEV; listed as Homo sapiens) [compound 197] | CLL | BRCA, CCC, CRC, GBC, GBM, GC, GEJC, HCC, HNSCC, MEL, NHL, NSCLCadeno, NSCLCother, NSCLCsquam, OC, OSCAR, PACA, PRCA, RCC, SCLC, UBC, UEC
138 (SQAPAARAF; listed as Homo sapiens) [compound 138] | CLL | NHL, NSCLCadeno
150 (EEVTDRSQL; listed as Homo sapiens) [compound 150] | CLL | GBC, GC, NHL, NSCLCadeno, NSCLCother, NSCLCsquam, OC

Substance | Peptide Presentation on cancer entities | Peptide Presentation on tumor types
177 (QENMQIQSF; listed as Homo sapiens) [compound 177] | CLL | BRCA, CCC, CRC, GC, HCC, HNSCC, MEL, NHL, NSCLCadeno, NSCLCsquam, OC, OSCAR, PACA, SCLC, UBC, UEC
61 (IFKEHNFSF; listed as Homo sapiens) [compound 61] | AML | 
54 (QQALNFTRF; listed as Homo sapiens) [compound 54] | CLL | GBC, MEL, NHL, NSCLCadeno, NSCLCsquam, OC, RCC, SCLC
8 (STDSAGSSY; listed as Homo sapiens) [compound 8] | CLL | NHL
22 (ILHAQTLKI; listed as Homo sapiens) [compound 22] | CLL | HCC, NHL, NSCLCsquam, PRCA
80 (KPLFKVSTF; listed as Homo sapiens) [compound 80] | CLL | NHL, NSCLCadeno, NSCLCother, NSCLCsquam, OC, OSCAR, RCC, UEC
213 (RVYNIYIRR; listed as Homo sapiens) [compound 213] | AML | NHL, NSCLCadeno, OC
140 (EYDLKWEF; listed as Homo sapiens) [compound 140] | AML | 
255 (YPGSDRIML; listed as Homo sapiens) [compound 255] | CLL | MEL, NHL, NSCLCadeno
14 (TFDLTVVSY; listed as Homo sapiens) [compound 14] | CLL | BRCA, CCC, CRC, GBC, GBM, GC, HCC, HNSCC, MEL, NHL, NSCLCadeno, NSCLCother, NSCLCsquam, OC, OSCAR, PACA, PRCA, RCC, SCLC, UBC, UEC
216 (RIKAPSRNTIQK; listed as Homo sapiens) [compound 216] | CLL | NHL
60 (TQDPHVNAFF; listed as Homo sapiens) [compound 60] | CLL | BRCA, CRC, GBC, GEJC, HCC, HNSCC, NHL, NSCLCadeno, NSCLCother, NSCLCsquam, OC, OSCAR, PACA, PRCA, SCLC, UBC, UEC
133 (AEHNFVAKA; listed as Homo sapiens) [compound 133] | CLL | BRCA, GBM, HNSCC, MEL, NHL, NSCLCadeno, OC, OSCAR
154 (AEPGPVITW; listed as Homo sapiens) [compound 154] | CLL | NHL
52 (KAFNQSSTLTK; listed as Homo sapiens) [compound 52] | CLL | 
78 (RPRGLALVL; listed as Homo sapiens) [compound 78] | AML, CML | BRCA, CCC, CRC, GBC, GBM, GC, HCC, HNSCC, MEL, NHL, NSCLCadeno, NSCLCother, NSCLCsquam, OC, OSCAR, PACA, PRCA, RCC, SCLC, UBC, UEC
103 (IPANTEKASF; listed as Homo sapiens) [compound 103] | CLL | 
247 (QPSPARAPAEL; listed as Homo sapiens) [compound 247] | CLL | GBC, NHL, NSCLCadeno, NSCLCsquam, OSCAR, SCLC
180 (EEPAFNVSY; listed as Homo sapiens) [compound 180] | CLL | BRCA, CCC, GBC, NHL, NSCLCadeno, OC, OSCAR
9 (YSHPQYSSY; listed as Homo sapiens) [compound 9] | CLL | 
261 (NEIEHIPVW; listed as Homo sapiens) [compound 261] | CLL | NHL, OSCAR
225 (LPARFYQAL; listed as Homo sapiens) [compound 225] | CLL | BRCA, OSCAR
115 (ELYQRIYAF; listed as Homo sapiens) [compound 115] | AML | HNSCC, NHL, NSCLCadeno, NSCLCother, NSCLCsquam, PRCA, SCLC
250 (VPNLQTVSV; listed as Homo sapiens) [compound 250] | CLL | BRCA, CCC, CRC, GBC, GC, HCC, HNSCC, MEL, NHL, NSCLCadeno, NSCLCsquam, OC, OSCAR, PACA, PRCA, RCC, SCLC, UBC, UEC
79 (SPVPSHWMVA; listed as Homo sapiens) [compound 79] | CLL | CCC, MEL, NHL, PRCA, SCLC, UBC
50 (GVFNTLISY; listed as Homo sapiens) [compound 50] | AML | MEL, PRCA
